Experimental findings from paper PMC7819943, “Rice protein-binding microarrays: a tool to detect cis-acting elements near promoter regions in rice” are described below.

The list shows a part of the results.

The assay deals with T1, OsSMF1 (Oryza sativa, UniProt Q6ZLB0 1-436).
T1 sequence: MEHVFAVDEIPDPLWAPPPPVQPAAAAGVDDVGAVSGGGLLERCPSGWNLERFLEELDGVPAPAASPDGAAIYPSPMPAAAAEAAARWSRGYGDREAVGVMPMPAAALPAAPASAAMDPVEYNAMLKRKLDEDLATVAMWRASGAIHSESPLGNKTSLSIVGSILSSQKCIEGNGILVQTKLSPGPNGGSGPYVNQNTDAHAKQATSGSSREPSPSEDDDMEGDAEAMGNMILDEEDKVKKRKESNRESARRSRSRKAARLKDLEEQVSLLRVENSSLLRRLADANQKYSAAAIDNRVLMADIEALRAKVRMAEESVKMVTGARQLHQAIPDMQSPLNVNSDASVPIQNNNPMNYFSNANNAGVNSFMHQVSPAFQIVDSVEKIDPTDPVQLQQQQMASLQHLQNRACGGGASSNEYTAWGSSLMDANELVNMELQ
Briefly: protein-binding microarray (RPBM); PBS, 2% BSA, 51.3 ng/ul salmon testes DNA, 50 uM zinc acetate, 200 nM TF, 25 C, 1 h; high values mean tight binding. To be noted: protein: recombinant; tags: N-terminal polyhistidine and DsRed monomer fusion (pET32a); chain copies: 2; label: CyDye5-dUTP incorporated in the synthesized complementary strand; 3' TTTTT single-stranded linker to array surface; dsDNA, one strand shown. The method, boiled down: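 In PBS with 2% BSA, salmon testes DNA and 50 µM zinc acetate, 200 nM protein was incubated on a custom Agilent array at 25 °C for 1 h and then washed off. The array had been made double-stranded by primer extension with Cy5-dUTP and blocked with 2% BSA. The proteins were transcription factors fused N-terminally to polyhistidine and DsRed, expressed in E. coli BL21-CodonPlus and purified on Ni–NTA. The binding signal is per-feature fluorescence intensity (arbitrary units) from an Axon 4000B scanner.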
“AAATCACTGCAGTCCTATTGATGATAGCGTGGCGTCGCAGCGGAGTCACCTAGTGCAG”: the binding signal is 5520 fluorescence intensity (a.u.).
As to “CATCAAGTCATCAACAGTCACATGCCCTGCTAGCTAGTACCGGAGTCACCTAGTGCAG”, the binding signal is 22400 fluorescence intensity (a.u.).
The result for “GCCGGCGGCCATCGGCGTCGCCTACGTCGCCGTCAAGCCTCGGAGTCACCTAGTGCAG” reads 19100 fluorescence intensity (a.u.); that for “TCAGTTGTTTACTGTCATGGTGTCATATTTCTCGCATCGACGGAGTCACCTAGTGCAG”, 4350 fluorescence intensity (a.u.).
In the case of “ATTTGGGCGGCAAGCTGACGTGGCACACGGCGTCATGACTCGGAGTCACCTAGTGCAG” it was 18100 fluorescence intensity (a.u.).
With “ACGTCTCCTCCTCCTCCACGTCAAACCACAATCCAACCAACGGAGTCACCTAGTGCAG”, the binding signal is 5400 fluorescence intensity (a.u.).
With “AATCTGCGGCGCGAGGCGGAGGTGGTGGTGGTGGTGGTGGCGGAGTCACCTAGTGCAG”, the binding signal was 3950 fluorescence intensity (a.u.).
On to “TACAGAGGATATCTGCACATGCGACGCTATGAAATAAACGCGGAGTCACCTAGTGCAG”, for which the binding signal is 3980 fluorescence intensity (a.u.).
For the sequence “TCGGCCAATGCGGAGCCGTCAGCTCTCCGCTGCTCGGCTACGGAGTCACCTAGTGCAG”, the binding signal is 44400 fluorescence intensity (a.u.).
Regarding “GATGGACATTGTTTGCCATCACCGTCAACGACCGTTGACTCGGAGTCACCTAGTGCAG”, the binding signal was 3760 fluorescence intensity (a.u.).
In the case of “GCGCAGGGCTTCCCATTGACGCATAGCGCATACTCCAGCGCGGAGTCACCTAGTGCAG” it was 3250 fluorescence intensity (a.u.).
The result for “GTGGCAATGCAGCATCATAGCTGGCTGTCGGTTGCCGCTACGGAGTCACCTAGTGCAG” reads 3410 fluorescence intensity (a.u.).
Take “GGGCAACATCAGTGTCATCATTCCTCATGAGCACCTCAGCCGGAGTCACCTAGTGCAG”: the binding signal is 3910 fluorescence intensity (a.u.).
Take “ATTAATTAGCTAGTGCGCCCCTGCCTGCTCATGAGTCATGCGGAGTCACCTAGTGCAG”: the binding signal was 10600 fluorescence intensity (a.u.).
The result for “GATCCACCCACGCATCGATTCGCTGGACGTACGCCACATTCGGAGTCACCTAGTGCAG” reads 3540 fluorescence intensity (a.u.); that for “GAGAGGCGAAGCTCGGGGACACGTGAACACATCGGCTTTTCGGAGTCACCTAGTGCAG”, 3490 fluorescence intensity (a.u.); that for “CAGTGACTAGTGACAAACGATCGATCGATCCCTCCATCCACGGAGTCACCTAGTGCAG”, 4780 fluorescence intensity (a.u.).
In the case of “GCGGTTTCGTCCGACGTGGCGTCATTGACCCGGTTGACGACGGAGTCACCTAGTGCAG” it was 13000 fluorescence intensity (a.u.).
The result for “TGAAGAGATCCAACAAAGTTCAAATTGACAAAGCACATTCCGGAGTCACCTAGTGCAG” reads 3180 fluorescence intensity (a.u.).
For “TTGCCAGTGGCACACGTATCTCACCACATGCCACTGCATTCGGAGTCACCTAGTGCAG”, the binding signal is 3620 fluorescence intensity (a.u.).
In the case of “GAACATGTATGAATGCGTGCATCCACTGGTGCATGCAGCACGGAGTCACCTAGTGCAG” it was 3140 fluorescence intensity (a.u.).
The result for “CACAAATGAAGAAACAAGGTGTTGCATCACCAGTCATGGGCGGAGTCACCTAGTGCAG” reads 6740 fluorescence intensity (a.u.).
In the case of “GTACCCCTCACGGTAAGCCCGGTAACCGCGCGGTTACCGGCGGAGTCACCTAGTGCAG” it was 22900 fluorescence intensity (a.u.); in that of “AGACCAAGTAGTACCACCACTTCGTAGCCCAAATCAAACGCGGAGTCACCTAGTGCAG”, 3190 fluorescence intensity (a.u.); in that of “CTCGTCTCTCGGTCTCGTTCCCGTACACGTCGCGATGTGACGGAGTCACCTAGTGCAG”, 4420 fluorescence intensity (a.u.).
As to “CCTCCGGCGCTCACGGCGACGATGTGGCGACTCTCGGCGGCGGAGTCACCTAGTGCAG”, the binding signal is 3380 fluorescence intensity (a.u.).
Consider “TGTATGTATGACATGTGGGACTAGATATTAATTTTGTAGTCGGAGTCACCTAGTGCAG”, for which the binding signal was 5090 fluorescence intensity (a.u.).
Regarding “TCCTGCCAATCTGTAACGACAGTGGCCGATACAATCGTCCCGGAGTCACCTAGTGCAG”, the binding signal was 3750 fluorescence intensity (a.u.).
“TTACTGTTTCCAACACTGTTGAGTAACCACGTCCTTCGACCGGAGTCACCTAGTGCAG”: the binding signal was 3610 fluorescence intensity (a.u.).
With “TAGGATGCCACATCCTCATCCTTGATGGAACAACCACGTTCGGAGTCACCTAGTGCAG”, the binding signal was 5890 fluorescence intensity (a.u.).
In the case of “GTGCTCATTTAATTGCTAAGATACACGTTTGCTAGTGCATCGGAGTCACCTAGTGCAG”, the binding signal was 3780 fluorescence intensity (a.u.).
In the case of “GTGAGATGTTGCTTGGAGCATGCTGCGTCGGTGGCGAAAACGGAGTCACCTAGTGCAG” it was 3920 fluorescence intensity (a.u.).
For “AAATACCCACGTCACCACGTGAAGTGACGTCAGGTGGCCGCGGAGTCACCTAGTGCAG”, the binding signal is 17700 fluorescence intensity (a.u.).
Take “TCGGAGGGGCAAAGCGATTTCATTGTCATCATCGATATTTCGGAGTCACCTAGTGCAG”: the binding signal is 3220 fluorescence intensity (a.u.).
The result for “CCGCCTGTGCCACTCTCCACGCGCGACACGTGTCCAGTCGCGGAGTCACCTAGTGCAG” reads 18300 fluorescence intensity (a.u.); that for “CTAGCATTTAGCACGACTTCACGGATCTTTAGCTAGGTCACGGAGTCACCTAGTGCAG”, 3210 fluorescence intensity (a.u.); that for “ATGTGGGTCCCACGCTGACTCAGTCGCCATGTCGGACAAACGGAGTCACCTAGTGCAG”, 5760 fluorescence intensity (a.u.).
In the case of “GTTGGTTCTTGCAAGTTGGAGAGCTGATCCTATATAAAGCCGGAGTCACCTAGTGCAG” it was 14700 fluorescence intensity (a.u.); in that of “ACCTCCACCTCCACCTCCCTCCCCGTCCCCGTCGTCAGCGCGGAGTCACCTAGTGCAG”, 3650 fluorescence intensity (a.u.); in that of “AGAGTTCGAAGGCTAACCGACATATACTGATCCCAACAAGCGGAGTCACCTAGTGCAG”, 3260 fluorescence intensity (a.u.).
The result for “ACAACTAGTCCTCAGCCTAGCTTTGGTCGATGGTCATGATCGGAGTCACCTAGTGCAG” reads 4400 fluorescence intensity (a.u.); that for “CCCATTTGCTGGTGTTTTAGCCACTCGTCGTATCACAACACGGAGTCACCTAGTGCAG”, 21100 fluorescence intensity (a.u.).
